According to patent KR20230175116A:
No constants are given. Whether binding was seen depends on the method and setting. Some results given as binding are weak or reduced against the parent protein; the word gives no strength. Tags and fused reporters may be left off the sequences shown.

Biological target: T1, DR3-His tag (human) (UniProt Q93038)
T1 sequence (looked up): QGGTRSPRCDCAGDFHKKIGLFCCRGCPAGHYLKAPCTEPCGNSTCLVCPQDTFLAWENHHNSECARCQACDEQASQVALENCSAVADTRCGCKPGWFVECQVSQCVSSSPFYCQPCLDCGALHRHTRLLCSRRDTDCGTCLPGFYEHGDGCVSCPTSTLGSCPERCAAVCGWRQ
Assay: SPR, Biacore T100, DR3-His tag immobilised on CM5 chip; TL1A as the reference

- binding: binds
B1: TL1A (ligand, UniProt O95150 72-251, looked up)
chain: LKGQEFAPSHQQVYAPLRADGDKPRAHLTVVRQTPTQHFKNQFPALHWEHELGLAFTKNRMNYTNKFLLIPESGDYFIYSQVTFRGMTSECSEIRQAGRPNKPDSITVVITKVTDSYPEPTQLLMGTKSVCEVGSNWFQPIYLGAMFSLQEGDKLMVNVSDISLVDYTKEDKTFFGAFLL
